Measured values: PubChem BioAssay AID493014 (National Center for Advancing Translational Sciences (NCATS), 2011)
Hit rate of the full screen: of about 340,000 compounds, about 170 (0.05%) were called active. This list was built around the results that the source calls inconclusive (neither active nor inactive); the mix of calls is not that of the screen. Calls follow the shape of the dose curve; as a rule, active = well fitted inhibition curve with a large enough effect in the signal ratio, with a control signal flat (not every such curve was filed as active); inconclusive = small, poorly fitted or top-dose-only effect, or effect the other way, or a change in a side signal; inactive = flat fitted curve, though single readings scatter; the % refers to the signal ratio. Where the call is inconclusive, the potency comes from a doubtful curve fit.

assay: qHTS Assay to Find Inhibitors of Chronic Active B-Cell Receptor Signaling; details: ABC-DLBCL IkBa-CBG/CBR reporter, luminescence ratio (green luciferase fused to IkBa over red control in TMD8 lymphoma cells), 4 h; activity change, negative = inhibition: at 46.1 µM (top of the series) unless noted;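 as to activity change, negative = inhibition: plate controls were basal doxycycline-induced cells for no effect and cells given 10 µM MG132 for full effect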
Procedure, shortened: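 TMD8 ABC-DLBCL cells carrying doxycycline-inducible green luciferase fused to IkappaBalpha plus unfused red luciferase were exposed to compounds (up to 46 uM) for 4 hrs at 37C. Activity came from the overlap-corrected green/red luminescence ratio.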
Potency is read from the fitted curve at half-maximal effect.

SMILES | activity change, negative = inhibition | Potency
CC(NS(=O)(=O)c1cc2c3c(c1)CCC(=O)N3CCC2)c1ccccc1 (configuration not stated) | inconclusive: -11.1% | –
O=C(O)/C=C\C(=O)Nc1ccccc1C(=O)NCc1ccccc1 | – | inconclusive: 3.26 µM [falling, partial curve]
CC(=O)c1cccc(NC(=O)CCC(=O)c2ccc(F)cc2)c1 | inactive | –
O=C(CNCc1ccc(Cl)cc1)Nc1ccc2c(c1)OCCO2 | inactive | –
CCN1C[C@@H]2[C@@H]3C(=O)N(Cc4ccccc4)C(=O)[C@@H]3[C@](Cc3ccccc3)(C(=O)OC)N2C1=NC | inactive | –
CSc1ccccc1NC(=O)CN1CCN(S(=O)(=O)c2ccccc2[N+](=O)[O-])CC1 | inconclusive: -1.79% | –
Cc1cc2c(ncn2Cc2ccccc2)c(N)c1C | inactive | –
O=C(Nc1ccc(F)cc1)Nc1ccccc1N1CCCCC1 | inconclusive: -30.2% | –
C=CCOc1ccc2oc(=O)cc(C)c2c1 | inconclusive: 0.077% | –
CN(C(=O)c1cc2sccc2n1C)C1CCCCC1 | – | inconclusive: 29.1 µM [falling, single point]
COc1ccccc1Nc1nc(-c2cccs2)cs1 | inconclusive: -0.214% | –
O=C(COc1ccc(F)cc1)NCC1(N2CCCCC2)CCCCC1 | inconclusive: 0.419% | –
CCN(CC)c1ccc2c(C)c(CO)c(=O)oc2c1 | – | inconclusive: 11.2 µM [falling, single point]
O=C(Nc1cccc(Cl)c1)c1cc(S(=O)(=O)N2CCOCC2)cs1 | inconclusive: -2.36% | –
CCc1nnc(NC(=O)c2cccc(S(=O)(=O)N(C)c3ccccc3)c2)s1 | – | inconclusive: 20.6 µM [falling, single point]
Cc1cccc(NC(=S)N/N=C/C(C)c2ccccc2)c1C (configuration not stated) | inconclusive: -19% | –
Cc1cccc(-c2nnn(Cc3nnc(NC(=O)c4ccccc4)s3)n2)c1 | inconclusive: 9.92% | –
CCCCCCN1C2=NCCCN2c2ccccc21 | inactive | –
CC(=O)Nc1cccc(NC(=O)CSc2ncc(C(=O)Nc3ccccc3)c(=O)n2C)c1 | inconclusive: -18.4% | –
COC(=O)CCc1nc2ccccc2nc1OC | – | inconclusive: 11.2 µM [falling, partial curve, poor fit]
O=C1C(C=NCC2CCCO2)=C(O)c2ccccc21 (configuration not stated) | – | inconclusive: 25.1 µM [falling, single point]

SMILES | activity change, negative = inhibition | Potency
COC(=O)C(C(=O)Nc1nc2ccccc2s1)C1CCCC1 (configuration not stated) | inconclusive: 9.3% | –
COc1ccccc1NC(=O)N(Cc1ccco1)C1CCN(C(C)=O)CC1 | inactive | –
COc1ccc(Br)cc1-c1noc(-c2ccncc2)n1 | inconclusive: 6.22% | –
CN(C)c1ccc(/C=N/NC(=O)c2ccccc2O)o1 | – | inconclusive: 35.5 µM [rising, partial curve]
CC(C)Cc1nc(SCC(=O)NCc2ccccc2)n[nH]1 | inconclusive: 0.0597% | –
O=C(N/N=C/c1cccc([N+](=O)[O-])c1)c1cccs1 | – | inconclusive: 18.4 µM [cytotoxic, partial curve]
O=C(c1cc2cc(F)ccc2[nH]1)N1CCc2ccccc2C1 | inconclusive: 0.141% | –
c1ccc(CC2CCN(c3nc4ccccc4n4nnnc34)CC2)cc1 | – | inconclusive: 29.1 µM [falling, single point]
Fc1ccccc1N1CCN(CC2CC3C=CC2C3)CC1 (configuration not stated) | inactive | –
Cc1cccc(-n2c(N)cc(=O)nc2SCC(=O)Nc2ccccc2)c1 | inactive | –
CCOc1ccc(Nc2nc(N(C)c3ccccc3)nc(N)c2[N+](=O)[O-])cc1 | inconclusive: 3.73% | –
CCOc1ncccc1C(=O)OCC(=O)Nc1cc(S(=O)(=O)N2CCOCC2)ccc1C | inconclusive: -3.67% | –
O=C(Cc1ccccc1)Nc1ccc(NC(=O)c2ccc(Br)cc2)cc1 | inactive | –
COC(=O)c1cccc(S(=O)(=O)N(Cc2ccco2)Cc2cc3ccc(OC)cc3[nH]c2=O)c1 | inactive | –
Cc1ccc(-c2nc3ccc(NS(=O)(=O)c4ccccc4)cc3[nH]2)o1 | – | inconclusive: 5.8 µM [rising, full curve]
Cc1ccc2c(c1)-n1c(nc3ccccc3c1=O)C(CC(C)C)NC2=O (configuration not stated) | inactive | –
COc1ccc(NC2=C(C)C(=O)CC2)cc1 | inconclusive: 3.77% | –
CC(C)OCCCNC(=O)c1cccs1 | inconclusive: -1.06% | –
COc1ccc(S(=O)(=O)N2CCOCC2)cc1NC(=O)C1CCCN1C(=O)c1cccs1 (configuration not stated) | inconclusive: 7.55% | –
COc1ccc(C(=O)/C(=C/c2cccs2)c2nc3ccccc3o2)cc1 | – | inconclusive: 2.59 µM [falling, full curve]
CCOC(=O)c1c(C)oc2c1c(C=NCCO)c(O)c1ccccc12 | inconclusive: -0.391% | –

Entries of single compounds, quoted from the list. Values in the order: activity change, negative = inhibition	Potency
Fc1ccccc1N1CCN(CC2CC3C=CC2C3)CC1 (configuration not stated) is entered as inactive	–
CN(C)c1ccc(/C=N/NC(=O)c2ccccc2O)o1 is entered as –	inconclusive: 35.5 µM [rising, partial curve]
O=C(Cc1ccccc1)Nc1ccc(NC(=O)c2ccc(Br)cc2)cc1 is entered as inactive	–
